PubChem BioAssay AID504774, Drosophila RNAi Screening Center | 2011
The deposit covers about 23,000 reagents; below is an unselected part of those with a known target gene and a result. 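Values are quantile-normalised luminescence on an arbitrary scale; higher means more cells surviving MMS.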 Names joined by + are all predicted targets of the reagent. Not all columns of the deposit are shown. No sequences are given here.

Test: 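Genes required for cells to withstand methyl methanesulphonate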 (primary screen)
System: Drosophila Kc167 cells
Knock-down reagent: long dsRNA against Drosophila genes, about 0.25 µg dsRNA per well
Duration: about 6 days: 3 days knock-down, then 3 days with or without MMS
Challenge: methyl methanesulphonate 0.004% (w/v) for 3 days after knock-down
Read-out: 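ATP-dependent luminescence as a measure of live cells in MMS-exposed wells, quantile normalised within each plate, with replicate values also given as a mean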
Direction: mean viability with MMS: higher = more surviving cells after MMS

mean viability with MMS, by gene and reagent
CG34251: DRSC09498 3.53e6; DRSC09500 3.74e6
CG11192: DRSC06057 3.37e6
CG1894: DRSC15396 3.56e6
Mon1: DRSC00336 3.64e6
CG3176 + CR18166 + CG32817: DRSC17271 3.73e6; DRSC17282 3.70e6; DRSC18288 3.71e6
CG31445: DRSC14443 3.58e6
CG31109: DRSC14648 3.69e6
CG9356: DRSC16476 3.60e6
CG13989: DRSC02321 3.55e6
PICK1: DRSC02936 3.53e6
CG9114: DRSC20155 3.53e6
Agpat1: DRSC19879 3.66e6; DRSC19880 3.57e6
CG18266: DRSC02659 3.40e6
CG13784: DRSC00974 3.66e6; DRSC02287 3.44e6
MFS9: DRSC15560 3.73e6
Oat: DRSC11043 3.46e6

No new results follow: entries from further up.
mean viability with MMS, by gene and reagent
CG3176 + CR18166 + CG32817: DRSC17282 3.70e6; DRSC18288 3.71e6
CG31445: DRSC14443 3.58e6
CG31109: DRSC14648 3.69e6
CG9356: DRSC16476 3.60e6

Additional reagents follow:
mean viability with MMS, by gene and reagent
D19B: DRSC11134 3.53e6
bor: DRSC16915 3.43e6
CG17167: DRSC20902 3.48e6; DRSC20903 3.49e6
OSCP1: DRSC06304 3.51e6
CG30161: DRSC22141 3.54e6
CG10340: DRSC14232 3.64e6
vvl: DRSC11409 3.58e6
CG8860: DRSC07291 3.57e6
Gr68a: DRSC10803 3.81e6
CG33007 (retired record): DRSC21845 3.48e6
CG11018: DRSC06024 3.52e6
Fit1: DRSC08450 3.57e6
CG32391: DRSC08865 3.62e6
MFS10: DRSC19888 3.65e6
Prp19: DRSC07434 3.42e6
CG9459: DRSC16496 3.67e6
Skadu: DRSC01490 3.65e6
Mcr: DRSC03366 3.57e6
simj: DRSC10942 3.44e6
armi: DRSC08193 3.61e6
pps: DRSC16057 3.26e6
CG5676: DRSC02875 3.66e6
pelo: DRSC03588 3.65e6
mei-S332: DRSC04704 3.63e6
